PubChem BioAssay AID504774, Drosophila RNAi Screening Center – 2011
In all, the deposit lists about 23,000 reagents; shown is a random part of those with a known target gene and a result. 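Values are quantile-normalised luminescence on an arbitrary scale; higher means more cells surviving MMS.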 Reagents against one gene are numbered here. Names joined by + are all predicted targets of the reagent. Not all columns of the deposit are shown. No sequences are given here.

Assay: 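Fly genes whose loss alters survival after alkylation damage to DNA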 (primary screen)
Cell system: Drosophila Kc167 cells
Reagent: long dsRNA against Drosophila genes, about 0.25 µg dsRNA per well
Time to read-out: about 6 days: 3 days knock-down, then 3 days with or without MMS
Conditions: methyl methanesulphonate 0.004% (w/v) for 3 days after knock-down
Detection: 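Viability in wells given MMS, read as ATP luminescence, normalised by quantiles plate by plate and averaged across replicates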
Direction: mean viability with MMS: higher = more surviving cells after MMS

mean viability with MMS, by gene and reagent
sev: #1 3.52e6
CG11590: #1 3.80e6
Rpp20 + CG33932: #1 3.62e6
thoc5: #1 3.33e6
Rpp21: #1 3.75e6
or: #1 3.66e6
mEFTu2: #1 3.16e6
CG6015: #1 3.24e6
CG34169: #1 3.54e6
CG14853: #1 3.71e6; #2 3.48e6
Rbm13: #1 3.35e6
gnu: #1 3.59e6
FoxP: #1 3.55e6; #2 3.47e6
erm: #1 3.55e6
Cyp6d5: #1 3.70e6
KFase: #1 3.39e6
CG16721: #1 3.33e6
CG10581: #1 3.52e6
Syx6: #1 3.54e6
tefu: #1 3.42e6
CG17806: #1 3.75e6
CG30275: #1 3.80e6
prage: #1 3.45e6; #2 3.18e6; #3 3.43e6; #4 3.49e6
Ercc1: #1 3.34e6
CG17233: #1 3.33e6
CG6726: #1 3.52e6
Edem2: #1 3.68e6
CG17826: #1 3.60e6
PGAP3: #1 3.57e6
t: #1 3.59e6
CG15480: #1 3.67e6
CG7763: #1 3.60e6
CG10631: #1 3.65e6
Clamp: #1 3.68e6; #2 3.00e6
CG12491 + CG34105: #1 3.62e6; #2 3.45e6
Trm7-32: #1 3.60e6
Wnt4: #1 3.11e6; #2 3.60e6
CG4286: #1 3.63e6
IFT46: #1 3.57e6
CG13653: #1 3.51e6
Ugt37B1: #1 3.51e6
CG8908: #1 3.48e6
awd: #1 3.62e6
St1: #1 3.55e6
moody: #1 3.54e6
CG7730: #1 3.72e6
CG5902: #1 3.49e6
CG42749: #1 3.60e6; #2 3.48e6
pch2: #1 3.64e6
MSBP: #1 3.54e6
CG42496 + Ppcdc: #1 3.41e6
CG16985: #1 3.59e6
CG13024: #1 3.63e6
Ugt36A1 + CG15418: #1 3.81e6
CG9389: #1 3.42e6
CG15278: #1 3.64e6
CG31407: #1 3.52e6
CG5167: #1 3.60e6
IleRS: #1 3.50e6
CG34124: #1 3.38e6
CG9777: #1 3.45e6
CG17198 + CG17197: #1 3.52e6; #2 3.66e6
CG31206: #1 3.59e6
pcm: #1 3.55e6
CG3021: #1 3.56e6; #2 3.65e6
CG12020: #1 3.43e6
e: #1 3.59e6
CG6073: #1 3.69e6; #2 3.58e6
l(2)37Cd: #1 3.54e6
GlyT: #1 3.39e6
TbCMF46: #1 3.40e6
Cys: #1 3.63e6
CG15099: #1 3.70e6
CG15142: #1 3.43e6
CG31051: #1 3.49e6

10 consecutive reagents from above, for reference:
mean viability with MMS, by gene and reagent
prage: #1 3.45e6; #2 3.18e6; #3 3.43e6; #4 3.49e6
Ercc1: #1 3.34e6
CG17233: #1 3.33e6
CG6726: #1 3.52e6
Edem2: #1 3.68e6
CG17826: #1 3.60e6
PGAP3: #1 3.57e6
